Source: paper PMC8591507, “Progesterone receptor membrane component 1 (PGRMC1) binds and stabilizes cytochromes P450 through a heme-independent mechanism” (The Journal of Biological Chemistry, 2021)

Chains of the proteins cited; added tags and fusions are not shown. Lines headed by an entry give the natural chain unless they say otherwise; changes in a name come on top.
UniProt O55022: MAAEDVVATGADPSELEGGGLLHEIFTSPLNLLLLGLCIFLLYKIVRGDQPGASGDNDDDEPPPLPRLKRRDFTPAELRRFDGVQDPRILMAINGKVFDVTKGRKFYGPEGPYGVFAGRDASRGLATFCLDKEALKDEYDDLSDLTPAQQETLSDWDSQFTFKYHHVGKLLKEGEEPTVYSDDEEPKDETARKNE
UniProt Q05421: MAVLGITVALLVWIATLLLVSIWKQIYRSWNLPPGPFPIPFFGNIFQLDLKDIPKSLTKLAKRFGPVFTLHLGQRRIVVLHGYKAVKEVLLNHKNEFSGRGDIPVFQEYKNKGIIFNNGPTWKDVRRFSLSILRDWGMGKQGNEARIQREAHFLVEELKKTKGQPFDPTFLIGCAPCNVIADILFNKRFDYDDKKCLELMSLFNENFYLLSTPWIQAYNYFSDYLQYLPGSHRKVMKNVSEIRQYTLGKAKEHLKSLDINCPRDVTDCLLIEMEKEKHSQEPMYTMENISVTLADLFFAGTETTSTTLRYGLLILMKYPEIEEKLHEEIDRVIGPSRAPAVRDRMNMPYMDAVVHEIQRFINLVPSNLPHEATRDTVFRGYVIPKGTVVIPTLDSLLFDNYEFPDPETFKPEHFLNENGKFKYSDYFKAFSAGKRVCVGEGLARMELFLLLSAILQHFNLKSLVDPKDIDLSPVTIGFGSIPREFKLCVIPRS
UniProt Q64458: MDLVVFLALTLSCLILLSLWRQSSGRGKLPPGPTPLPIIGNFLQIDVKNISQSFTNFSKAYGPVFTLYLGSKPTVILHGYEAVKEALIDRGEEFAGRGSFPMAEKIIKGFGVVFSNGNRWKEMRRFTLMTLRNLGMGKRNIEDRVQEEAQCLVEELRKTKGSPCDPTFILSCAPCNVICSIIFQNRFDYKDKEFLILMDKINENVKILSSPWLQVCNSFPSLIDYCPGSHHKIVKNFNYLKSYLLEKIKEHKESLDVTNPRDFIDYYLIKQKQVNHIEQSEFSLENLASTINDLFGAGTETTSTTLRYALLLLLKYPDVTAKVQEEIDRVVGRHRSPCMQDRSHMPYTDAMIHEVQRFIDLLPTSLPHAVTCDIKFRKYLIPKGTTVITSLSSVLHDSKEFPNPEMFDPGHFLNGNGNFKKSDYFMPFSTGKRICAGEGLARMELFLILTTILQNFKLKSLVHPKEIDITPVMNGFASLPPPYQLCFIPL

Experiments:
Assay in all cases: affinity purification with mass spectrometry; Flag-M2 agarose on DDM-solubilized liver membrane fractions of Pgrmc1 KO mice infected with AAV8 GFP, Flag-Pgrmc1 or Y113F Flag-Pgrmc1; 1 h at 4 °C; eluates TMT-labelled; candidates have a fold change ≥20% against the GFP control
[1] = biological target: Flag-Pgrmc1 (murine progesterone receptor membrane component 1) (mouse) (UniProt O55022)
[2] = biological target: Y113F Flag-Pgrmc1 (murine) (mouse) (UniProt O55022)
[3] = biological target: Flag-Pgrmc1 (murine progesterone receptor membrane component 1) (mouse) (UniProt O55022); remark: listed apart in the source
[4] = biological target: Y113F Flag-Pgrmc1 (murine) (mouse) (UniProt O55022); remark: listed apart in the source

Molecule: Cyp2e1 (from UniProt Q05421 1-493) (enzyme)
binding [1]: binds | binding [2]: binds

Molecule: Cyp2c29 (from UniProt Q64458) (enzyme)
binding [1]: binds | binding [2]: binds

B1: Cyp2f2 (enzyme, UniProt P33267 1-491)
chain: MDGVSTAILLLLLAVISLSLTFSSRGKGQLPPGPKPLPILGNLLQLRSQDLLTSLTKLSKEYGSVFTVYLGSRPVIVLSGYQTVKEALVDKGEEFSGRGAYPVFFNFTRGNGIAFSDGERWKILRRFSVQILRNFGMGKRSIEERILEEGSFLLEVLRKMEGKPFDPVFILSRSVSNIICSVVFGSRFDYDDERLLTIIHFINDNFKIMSSPWGEMYNIFPSVLDWIPGPHKRLFRNFGGMKDLIARSVREHQDSLDPNSPRDFIDCFLTKMAQEKQDPLSHFNMDTLLMTTHNLLFGGTETVGTTLRHAFLILMKYPKVQARVQEEIDRVVGRSRMPTLEDRTSMPYTDAVIHEVQRFADVIPMNLPHRVTRDTPFRGFLIPKGTDVITLLNTVHYDSDQFKTPQEFNPEHFLDDNHSFKKSPAFMPFSAGRRLCLGEPLARMELFIYFTSILQNFTLQPLVDPEDIDLTPLSSGLGNLPRPFQLCMHIR
binding [3]: binds | binding [4]: binds

B2: Cyp1a2 (enzyme, UniProt P00186 1-513)
chain: MAFSQYISLAPELLLATAIFCLVFWMVRASRTQVPKGLKNPPGPWGLPFIGHMLTVGKNPHLSLTRLSQQYGDVLQIRIGSTPVVVLSGLNTIKQALVRQGDDFKGRPDLYSFTLITNGKSMTFNPDSGPVWAARRRLAQDALKSFSIASDPTSASSCYLEEHVSKEANHLVSKLQKAMAEVGHFEPVSQVVESVANVIGAMCFGKNFPRKSEEMLNIVNNSKDFVENVTSGNAVDFFPVLRYLPNPALKRFKTFNDNFVLFLQKTVQEHYQDFNKNSIQDITSALFKHSENYKDNGGLIPEEKIVNIVNDIFGAGFDTVTTAITWSILLLVTWPNVQRKIHEELDTVVGRDRQPRLSDRPQLPYLEAFILEIYRYTSFVPFTIPHSTTRDTSLNGFHIPKERCIYINQWQVNHDEKQWKDPFVFRPERFLTNNNSAIDKTQSEKVMLFGLGKRRCIGEIPAKWEVFLFLAILLQHLEFSVPPGVKVDLTPNYGLTMKPGTCEHVQAWPRFSK
binding [3]: binds | binding [4]: binds

B5: BAP31 (protein, UniProt Q61335 1-245)
chain: MSLQWTTVATFLYAEVFAVLLLCIPFISPKRWQKVFKSRLVELVVTYGNTFFVVLIVILVLLVIDAVREILKYDDVTEKVNLQNNPGAMEHFHMKLFRAQRNLYIAGFSLLLSFLLRRLVTLISQQATLLASNEAFKKQAESASEAAKKYMEENDQLKKGAAEDGDKLDIGNTEMKLEENKSLKNDLRKLKDELASTKKKLEKAENEALAMQKQSEGLTKEYDRLLEEHAKLQASVRGPSVKKEE
binding [3]: binds

B7: Cyp2j5 (enzyme, UniProt O54749 1-501)
chain: MIMFLSSLVTTFWEALHLKTLVLAVVTFLFLINILRSRHPKNYPPGPWRLPFVGNFFQIDTKQTHLVLQQFVKKYGNVFSLELGQSPVVVVSGLPLIKEMFTHLDQNFVNRFMTPVRERITGKNGLVVSNGQTWKEQRRLALMALRNFGLGKKSLEERIQEETHHLVEAIREEGGQPFNPHLKLINAVSNIICSVTFGERFDYEDCQFQELLQLLDETMHLMGSSAGQLYNGFPCIMKYLPGPHQKIFRNWGKLKLFVSHIVKKHEKDWNPDEPRDFIDAFLIEMQKDPDRTTSFNEENLISTTLDLFLGGTETTSSTLRWALLYMSSYPEIQENVQAEIDRVIGHKRQVSLSDRESMPYTNAVIHEVQRMGNIVPLNSSREVTVDTKFNGFHLPKGTMILTNLTALHRDPKEWATPEVFNPEHFLENGQFKKRESFLPFSMGKRACLGEQLAKSELFIFFSALMQKFTFKPPINEKLSLKFRMGLILSPASYRICAIPRV
binding [3]: binds | binding [4]: binds

Results, then the molecule that gave them:

binding [3]: binds
B3: Cyp7b1 (enzyme, UniProt Q60991 1-507)
chain: MQGATTLDAASPGPLALLGLLFAATLLLSALFLLTRRTRRPREPPLIKGWLPYLGMALKFFKDPLTFLKTLQRQHGDTFTVFLVGKYITFVLNPFQYQYVTKNPKQLSFQKFSSRLSAKAFSVKKLLTDDDLNEDVHRAYLLLQGKPLDALLETMIQEVKELFESQLLKITDWNTERIFAFCGSLVFEITFATLYGKILAGNKKQIISELRDDFFKFDDMFPYLVSDIPIQLLRNEESMQKKIIKCLTSEKVAQMQGQSKIVQERQDLLKRYYRHDDPEIGAHHLGFLWASLANTIPAMFWAMYYILRHPEAMEALRDEIDSFLQSTGQKKGPGISVHFTREQLDSLVCLESTILEVLRLCSYSSIIREVQEDMNLSLESKSFSLRKGDFVALFPPLIHNDPEIFDAPKEFRFDRFIEDGKKKSTFFKGGKKLKTYVMPFGLGTSKCPGRYFAVNEMKLLLIMLLTYFDLEIIDRKPIGLNHSRMFLGIQHPDSAVSFRYKAKSWRS

binding [3]: binds
B4: lathosterol oxidase (enzyme, UniProt O88822 1-299)
chain: MDLVLSAADYYFFTPYVYPATWPEDNIIRQTISLLIVTNLGAYILYFFCATLSYYFVYDHSLMKHPQFLKNQVSREIVFTVKSLPWISIPTVSLFLLELRGYSKLYDDIGDFPNGWIHLMVSVVSFLFFTDMLIYWIHRGLHHRLVYKRIHKPHHIWKIPTPFASHAFHPVDGFLQSLPYHIYPFVFPLHKVVYLGLYVLVNVWTISIHDGDFRVPQILRPFINGSAHHTDHHMFFDYNYGQYFTLWDRIGGSFKHPSSFEGKGPHSYVKNMTEKESNSFAENGCKGKKVGNGEFTKNK

binding [3]: binds
B6: PGRMC2 (progesterone receptor membrane component 2) (protein, UniProt Q80UU9 1-217)
chain: MAAGDGDVKLSTLGSGGESGGDGSPGGAGATAARSSWVAALLATGGEMLLNVALVALVLLGAYRLWVRWGRRGLCSGPGAGEESPAATLPRMKKRDFSLEQLRQYDGARTPRILLAVNGKVFDVTKGSKFYGPAGPYGIFAGRDASRGLATFCLDKDALRDEYDDLSDLNAVQMESVREWEMQFKEKYDYVGRLLKPGEEPSEYTDEEDTKDHSKQD

binding [3]: binds
B8: Cyp3a13 (enzyme, UniProt Q64464 1-503)
chain: MDLIPNFSMETWMLLATSLVLLYLYGTHSHGIFKKLGIPGPKPLPFLGTILAYQKGFWECDIQCHKKYGKMWGLYDGRQPVLAITDPDIIKTVLVKECYSTFTNRRRFGPVGILKKAISISENEEWKRIRALLSPTFTSGRLKEMFPIINQFTDVLVRNMRQGLGEGKPTSMKDIFGAYSMDVITATSFGVNIDSLNNPQDPFVEKIKKLLKFDIFDPLFLSVTLFPFLTPVFDALNVSLFPRDVISFFTTSVERMKENRMKEKEKQRVDFLQLMINSQNYKTKESHKALSDVEIVAQSVIFIFAGYETTSSALSFALYLLAIHPDVQKKLQDEIDAALPNKAPATYDTLLQMEYLDMVVNETLRLYPIAGRLERVCKTDVEINGLFIPKGTVVMIPTFALHKDPKYWPEPEEFRPERFSKKNQDSINPYMYLPFGSGPRNCIGMRFALINMKVALVRVLQNFTVQPCKETEIPLKLSKQGLLQPENPLLLKVVSRDETVSDE

binding [3]: binds | binding [4]: binds
B9: Cyp3a11 (enzyme, UniProt Q64459 1-504)
chain: MDLVSALSLETWVLLAISLVLLYRYGTRKHELFKKQGIPGPKPLPFLGTVLNYYKGLWKFDMECYKKYGKTWGLFDGQTPLLAVTDPETIKNVLVKECFSVFTNRRDFGPVGIMSKAISISKDDEWKRYRALLSPTFTSGKLKEMFPVIEQYGDILVKYLRQKAKKGKPVTMKDVLGAYSMDVITSTSFGVNVDSLNNPEDPFVEKAKKLLRFDFFDPLLFSVVLFPFLTPVYEMLNICMFPKDSIEFFKKFVDRMKESRLDSKQKHRVDFLQLMMNSHNNSKDKVSHKALSDMEITAQSIIFIFAGYETTSSTLSFTLHSLATHPDIQKKLQDEIDEALPNKAPPTYDTVMEMEYLDMVLNETLRLYPIANRLERVCKKDVELNGVYIPKGSTVMIPSYALHHDPQHWSEPEEFQPERFSKENKGSIDPYVYLPFGNGPRNCLGMRFALMNMKLALTKIMQNFSFQPCKETQIPLKLSRQGLLQPEKPIVLKVVPRDAVITGA

binding [3]: binds | binding [4]: binds
B10: Cyp51a (enzyme, UniProt Q8K0C4 1-503)
chain: MVLLGLLQSGGWVLGQAMEQVTGGNLLSTLLIACAFTLSLVYLFRLAVGHMVQLPAGAKSPPHIYSPIPFLGHAIAFGKSPIEFLENAYEKYGPVFSFTMVGKTFTYLLGSDAAALLFNSKNEDLNAEEVYGRLTTPVFGKGVAYDVPNAIFLEQKKIIKSGLNIAHFKQYVPIIEKEAKEYFQSWGESGERNVFEALSELIILTASHCLHGKEIRSQLNEKVAQLYADLDGGFTHAAWLLPAWLPLPSFRRRDRAHREIKNIFYKAIQKRRLSKEPAEDILQTLLDSTYKDGRPLTDEEISGMLIGLLLAGQHTSSTTSAWMGFFLAKDKPLQEKCYLEQKAVCGEDLPPLTYDQLKDLNLLDRCIKETLRLRPPIMTMMRMAKTPQTVAGYTIPPGHQVCVSPTVNQRLKDSWAERLDFNPDRYLQDNPASGEKFAYVPFGAGRHRCVGENFAYVQIKTIWSTMLRLYEFDLINGYFPTVNYTTMIHTPENPVIRYKRRSK

binding [3]: binds
B11: ferrochelatase (Fech) (enzyme, UniProt P22315 54-422)
chain: TTKPQAQPERRKPKTGILMLNMGGPETLGEVQDFLQRLFLDRDLMTLPIQNKLAPFIAKRRTPKIQEQYRRIGGGSPIKMWTSKQGEGMVKLLDELSPATAPHKYYIGFRYVHPLTEEAIEEMERDGLERAIAFTQYPQYSCSTTGSSLNAIYRYYNEVGQKPTMKWSTIDRWPTHPLLIQCFADHILKELNHFPEEKRSEVVILFSAHSLPMSVVNRGDPYPQEVGATVHKVMEKLGYPNPYRLVWQSKVGPVPWLGPQTDEAIKGLCERGRKNILLVPIAFTSDHIETLYELDIEYSQVLAQKCGAENIRRAESLNGNPLFSKALADLVHSHIQSNKLCSTQLSLNCPLCVNPVCRKTKSFFTSQQL

Read-outs that look alike come from different tables or passages of the source. No constants are given. Whether binding was seen depends on the method and setting. In cells and extracts the contact can be indirect. These calls come from enrichment with a bait or labelling near it, and not all partners need be listed. One block for each molecule: values may come before it.
